Laboratory results taken from patent US4851450A, “Compounds for inhibition of platelet activating factor activity” (priority 1987, dated 1989).
Entries after “also recorded” stand apart in the source; their conditions may differ. For at least one compound, name, drawing or mass did not settle the structure.

Legend:
[1] = system: washed rabbit platelets (PAF receptor sites); assay: Desensitization and cross-desensitization studies of washed rabbit platelets; type: cell-based; settings: from aggregation curves and 3H-serotonin secretions
washed rabbit platelets = assay: Aggregation of washed rabbit platelets (procedure of Demopoulos et al.); type: cell-based; settings: for effect of indomethacin and CP/CPK on the aggregation: indomethacin 10 μM, CP/CPK 0.7 mM/13 u/ml; for Ca2+ dependence of the aggregation / platelet aggregation profile / platelet aggregation profile at lower concentrations: washed rabbit platelets
rabbit platelets = assay: [3H]Serotonin secretion by platelets; type: cell-based; settings: 1 and 5 min after addition, FIG. 2
Procedure: The procedure is as follows: PAF and the various test lipid compounds are assessed for platelet stimulatory activity as briefly described. Rabbit platelets, internally labeled with [^3 H]serotonin (New England Nuclear; 28.2 Ci/mmol) are washed on Ficoll-Paque cushions and adjusted to 2.5×10^8 platelets/ml of Tyrode's buffer, pH 7.2. Appropriate dilutions of PAF or the test lipids are prepared in pyrogen-free 0.15M NaCl containing 2.5 mg/ml of crystallized bovine serum albumin; the albumin is required for dispersion of PAF and the test lipids. Four microliters of the various dilutions of PAF and test lipids are added to 200 μl of prewarmed (37° C.) [^3 H]serotonin-labeled platelets in plastic test tubes and the reaction mixture was incubated for 60 s at which time 20 μl of cold 1.5 m formaldehyde were added to stop the reactions. The tubes were immediately cooled to 0° C., centrifuged at 2200×g for 10 min and the supernatants were assayed for percentage of [^3 H]serotonin secretion relative to 100% controls prepared by the addition of Triton X-100 to 200 μl of the starting platelet suspension. The data were plotted linearly and 1 unit of activity was defined as the amount of PAF or test lipids required to effect 50% serotonin release. […]

[2] = system: Tetrahymena pyriformis cells; assay: Glycogenolysis in intact Tetrahymena pyriformis cells; type: cell-based; settings: glucose measured, FIG. 3
Procedure: The results were obtained using the following procedure: Tetrahymena pyriformis cells, in log phase, are spun down, washed with saline and resuspended in Tyrodes solution. After 30 min of incubation, the compounds III and IV in bovine serum albumin solution are added and aliquots taken at different time intervals. The aliquots are treated for 2 min in boiled water, sonicated and glucose measured by the method of Bergmeyer et al. (Methods of Enzymatic Analysis, 3, 1196 (Academic Press, N.Y. 1974), the teachings of which are incorporated herein.

rats = assay: Systolic blood pressure in rats (procedure of Tselepis et al.); type: in vivo, rat
Text: Biochem. Physiol. 87C(1),41-46 (1987), the teachings of which are incorporated herein.

[3] = system: PAF aggregation of washed rabbit platelets; assay: Inhibition of PAF (AGEPC) activity / disaggregation during AGEPC-induced aggregation of washed rabbit platelets; type: cell-based

Structure (SMILES)	interaction with PAF receptor sites (desensitization / cross desensitization) [1]	interaction with receptor sites of thrombin or ADP [1]	effect of indomethacin and CP/CPK on the aggregation (washed rabbit platelets)	Ca2+ dependence of the aggregation (washed rabbit platelets)	platelet aggregation profile (washed rabbit platelets)	platelet aggregation profile at lower concentrations (washed rabbit platelets)	kinetics of serotonin secretion (rabbit platelets; listed as DAG)	glycogenolysis [2]	fall in systolic blood pressure (SBP) (rats)	recovery of SBP to normal values (rats; 0.8 μmols/kg b.w. injected 2 min before PAF (0.38 nmols/kg b.w.))	inhibition of the fall of SBP induced by PAF (rats; 0.8 μmols/kg b.w. injected 2 min before PAF (0.38 nmols/kg b.w.), FIG. 5)	effect on aggregation when added during AGEPC-induced aggregation ([3]; FIG. 4)	effect on aggregation when added during AGEPC-induced aggregation ([3]; FIG. 4, listed as DAG)	kinetics of serotonin secretion (rabbit platelets; listed as ADAG)
CCCCCCCCC(O)C(O)CCCCCCCCOCC(O)CO (centres unmarked) [Compound III, 9,10-Dihydroxy-Octadecyl Glycerol]	interact with the same receptor sites as PAF	not with the receptor sites of other aggregating agents such as thrombin or ADP	not affected by indomethacin (10 μM) and CP/CPK (0.7 mM/13 u/ml)	Ca^2+ dependent	monophasic irreversible aggregation	reversible aggregation at lower concentrations with a profile similar to the profile generated by AGEPC	results comparable to those of AGEPC; also recorded: aggregation comparable to the aggregation caused by AGEPC	dramatic influence on glycogenolysis	do not cause a fall in the systolic blood pressure	aids in recovery to normal values	inhibits the fall of SBP induced by PAF	interrupts aggregation and causes disaggregation	specific disaggregation of platelets	
CCCCCCCCC(OC(C)=O)C(CCCCCCCCOCC(COC(C)=O)OC(C)=O)OC(C)=O (centres unmarked) [Compound IV, Tetra-Acetyl-9,10-Dihydroxy-Octadecyl Glycerol]	interact with the same receptor sites as PAF	not with the receptor sites of other aggregating agents such as thrombin or ADP	not affected by indomethacin (10 μM) and CP/CPK (0.7 mM/13 u/ml)	Ca^2+ dependent	monophasic irreversible aggregation	reversible aggregation at lower concentrations with a profile similar to the profile generated by AGEPC		dramatic influence on glycogenolysis	do not cause a fall in the systolic blood pressure			interrupts aggregation and causes disaggregation		results comparable to those of AGEPC; also recorded: aggregation comparable to the aggregation caused by AGEPC
